Data source: PubChem BioAssay AID686943 (Drosophila RNAi Screening Center, 2013)

Test: 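Search across the genome for regulators of signalling from receptor tyrosine kinase to ERK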 (primary screen)
Cell system: Drosophila S2R+ haemocyte-like cells expressing YFP-tagged ERK (Rolled)
Knock-down reagent: long dsRNA against Drosophila genes
Conditions: insulin stimulation versus unstimulated cells; dose and duration not given
Measurement: 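Per-plate z-scores of phospho-ERK immunostaining normalised to YFP-tagged ERK, measured with and without insulin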
Reading the numbers: replicate 1, z-score of dpERK with insulin and replicate 2, z-score of dpERK with insulin: higher = more active ERK per ERK-YFP after insulin
In all, the deposit lists about 23,000 reagents; shown is a random part of those with a known target gene and a result. 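Extra replicates exist only for a retested subset of genes; insulin dose and duration not given; both raised and lowered dpERK matter.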 Names joined by + are all predicted targets of the reagent. Not all columns of the deposit are shown. Not given: the amount of reagent, the time to read-out.

predicted target | dsRNA | replicate 1, z-score of dpERK with insulin | replicate 2, z-score of dpERK with insulin
ttk (tramtrack) | DRSC14078 | -0.04 | 0.03
ttk (tramtrack) | DRSC17091 | -3.82 | -1.57
CG13972 | DRSC14715 | -0.72 | -1.47
Acbp2 (Acyl-CoA binding protein 2) | DRSC11141 | 0.71 | 0.77
5-HT2A (5-hydroxytryptamine (serotonin) receptor 2A) | DRSC11990 | -1.14 | -0.14
Hsp60B (Heat shock protein 60B) | DRSC00542 | 0.97 | 1.29
Tmlh (Trimethyllysine hydroxylase) | DRSC15563 | 0.97 | -0.14
mbl (muscleblind) | DRSC05657 | -0.26 | -1.9
mbl (muscleblind) | DRSC06449 | 1.18 | 1.74
mbl (muscleblind) | DRSC07651 | -3.12 | -5.59
SP2353 | DRSC07545 | -0.13 | 0.75
Vago | DRSC19833 | 0.81 | 0.04
loj (logjam) | DRSC09791 | -0.73 | 0.07
Polr2A (RNA polymerase II subunit A) | DRSC20280 | -0.37 | 0.99
CG31921 | DRSC00013 | -0.06 | 0.08
CG3679 | DRSC19346 | -0.02 | 0.35
Cyp313a1 (Cytochrome P450 313a1) | DRSC16624 | 1.02 | 0.53
Lint-1 + rtv | DRSC19541 | 0.07 | 0.67
CG4324 | DRSC04462 | 0.81 | 0.3
skd (skuld) | DRSC11898 | 2.41 | 1.38
CG34183 | DRSC01099 | 1 | 0.68
CG15741 | DRSC19707 | 0.48 | 0.52
CG6621 | DRSC16076 | 0.28 | 0.7
CG8414 | DRSC07168 | 1.12 | 0.53
NtR | DRSC04628 | -0.74 | 0.3
CG18294 + 825-Oak + CG32214 + 2 more | DRSC22210 | -0.11 | 0.94
CG8187 | DRSC07099 | 1.24 | 1.17
Amy-p (Amylase proximal) | DRSC06786 | -0.21 | -0.01
dnk (deoxyribonucleoside kinase) | DRSC16933 | -0.76 | -0.81
CG34301 | DRSC12704 | -0.7 | -1.33
CG11584 | DRSC19408 | 0.84 | 0.71
Psc (Posterior sex combs) | DRSC07518 | -0.09 | -0.34
Rab3-GEF (Rab3 GDP-GTP exchange factor) | DRSC19954 | 0.89 | 0.72
Rab3-GEF (Rab3 GDP-GTP exchange factor) | DRSC19955 | 0.39 | 1.48
Rab3-GEF (Rab3 GDP-GTP exchange factor) | DRSC19956 | -1.37 | -3.51
CG12964 | DRSC06266 | 1.76 | -1.4
yip2 (yippee interacting protein 2) | DRSC03640 | 0.93 | -0.53
CG34338 | DRSC17535 | -0.16 | 0.27
MED11 (Mediator complex subunit 11) | DRSC10739 | -7.85 | -5.29
Ahcy (Adenosylhomocysteinase) | DRSC19329 | 0 | 0.29
Dhod (Dihydroorotate dehydrogenase) | DRSC16647 | 0.58 | -0.57
Ciz1 (Ciz1 zinc finger protein) | DRSC09675 | 3.66 | 6.67
Tpi (Triose phosphate isomerase) | DRSC16888 | -0.15 | 0.47
Idgf6 (Imaginal disc growth factor 6) | DRSC07360 | 1.08 | 0.06
CG13311 | DRSC09982 | 0.96 | 0.32
CG2898 | DRSC18238 | 0.75 | 0.46
awd (abnormal wing discs) | DRSC16906 | -0.47 | -0.07
CG18476 | DRSC15281 | 0.89 | 0.07
CG5693 | DRSC02878 | 0.07 | 0.53
msd5 (mitotic spindle density 5) | DRSC08560 | 0.02 | 1.33
sim (single-minded) | DRSC17054 | -0.23 | 0
CG6712 | DRSC02981 | 0.19 | 0.19
CG6712 | DRSC21690 | -2.12 | 0.99
Asx (Additional sex combs) | DRSC05924 | -0.34 | -1.69
CG14515 | DRSC14867 | -1.44 | -0.23
CG11018 | DRSC06024 | 0.34 | 0.22
CG16736 | DRSC15145 | 0.83 | 0.28
Fdx2 (Ferredoxin 2) | DRSC08306 | 0.69 | 0.94
Uggt (UDP-glucose-glycoprotein glucosyltransferase) | DRSC11315 | -0.01 | -0.4
RPA1 (Replication protein A1) | DRSC16830 | -0.36 | -1.4
CG17839 | DRSC10290 | 0.05 | 0.23
CG17839 | DRSC10291 | -1.46 | -0.5
slp2 (sloppy paired 2) | DRSC00836 | 0.19 | 0.1
alph (alphabet) | DRSC15398 | 1.47 | 0.37
CG13847 | DRSC14697 | -1.89 | 0.44
Hsp26 (Heat shock protein 26) | DRSC11189 | -0.15 | 0.46
CG15701 | DRSC06572 | -0.92 | -0.17
CG13239 | DRSC11694 | 0.34 | -1.84
CG13720 | DRSC08329 | -2.19 | -1.26
lncRNA:CR32661 + lncRNA:CR43157 | DRSC19794 | 0.61 | 0.04
Zip42C.2 (Zinc/iron regulated transporter-related protein 42C.2) | DRSC05004 | 1.66 | 0.01
Mo25 | DRSC11224 | 0.56 | -0.67
sro (shroud) | DRSC14469 | -0.25 | -0.65

Quoted from the entries so far, 4 entries:
predicted target | dsRNA | replicate 1, z-score of dpERK with insulin | replicate 2, z-score of dpERK with insulin
CG13847 | DRSC14697 | -1.89 | 0.44
Hsp26 (Heat shock protein 26) | DRSC11189 | -0.15 | 0.46
CG15701 | DRSC06572 | -0.92 | -0.17
CG13239 | DRSC11694 | 0.34 | -1.84
